In the assay the target is full-length CtNaa15 with C-terminal Flag-TEV-protein A tag (Chaetomium thermophilum) (UniProt G0S4M4). Description: affinity purification with mass spectrometry; pull-out of protein A-tagged Naa15 or Naa50 from C. thermophilum lysate on IgG Sepharose; TMT LC-MS/MS in triplicates against mock-purified wild-type lysate.

Sequences of proteins named here, by UniProt entry; tags and fusion partners are left off. A change or cut given only in a name is not applied to a line headed by its entry.
UniProt G0S4M4: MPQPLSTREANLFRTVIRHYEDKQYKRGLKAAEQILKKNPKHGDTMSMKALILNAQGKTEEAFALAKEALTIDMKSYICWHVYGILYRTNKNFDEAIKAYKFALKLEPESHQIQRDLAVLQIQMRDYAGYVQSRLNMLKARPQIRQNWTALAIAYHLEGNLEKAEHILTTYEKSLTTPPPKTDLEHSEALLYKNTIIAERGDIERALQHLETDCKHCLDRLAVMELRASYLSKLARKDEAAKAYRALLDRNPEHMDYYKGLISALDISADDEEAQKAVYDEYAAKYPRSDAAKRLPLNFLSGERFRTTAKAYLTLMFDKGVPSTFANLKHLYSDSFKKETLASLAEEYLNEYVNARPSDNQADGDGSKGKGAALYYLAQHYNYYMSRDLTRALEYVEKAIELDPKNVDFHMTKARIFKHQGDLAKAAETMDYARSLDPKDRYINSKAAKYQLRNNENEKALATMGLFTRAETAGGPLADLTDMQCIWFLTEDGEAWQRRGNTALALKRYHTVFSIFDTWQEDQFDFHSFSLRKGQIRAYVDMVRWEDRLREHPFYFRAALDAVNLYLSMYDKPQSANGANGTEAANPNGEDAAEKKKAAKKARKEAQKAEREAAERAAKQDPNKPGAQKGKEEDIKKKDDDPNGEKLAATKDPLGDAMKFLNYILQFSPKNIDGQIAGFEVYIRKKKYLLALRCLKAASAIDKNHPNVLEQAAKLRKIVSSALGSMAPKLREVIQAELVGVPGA
UniProt G0SCY6: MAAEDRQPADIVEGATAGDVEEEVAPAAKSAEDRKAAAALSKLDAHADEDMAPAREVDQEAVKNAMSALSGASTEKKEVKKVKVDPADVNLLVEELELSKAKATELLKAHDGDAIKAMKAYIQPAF
UniProt G0SEF8: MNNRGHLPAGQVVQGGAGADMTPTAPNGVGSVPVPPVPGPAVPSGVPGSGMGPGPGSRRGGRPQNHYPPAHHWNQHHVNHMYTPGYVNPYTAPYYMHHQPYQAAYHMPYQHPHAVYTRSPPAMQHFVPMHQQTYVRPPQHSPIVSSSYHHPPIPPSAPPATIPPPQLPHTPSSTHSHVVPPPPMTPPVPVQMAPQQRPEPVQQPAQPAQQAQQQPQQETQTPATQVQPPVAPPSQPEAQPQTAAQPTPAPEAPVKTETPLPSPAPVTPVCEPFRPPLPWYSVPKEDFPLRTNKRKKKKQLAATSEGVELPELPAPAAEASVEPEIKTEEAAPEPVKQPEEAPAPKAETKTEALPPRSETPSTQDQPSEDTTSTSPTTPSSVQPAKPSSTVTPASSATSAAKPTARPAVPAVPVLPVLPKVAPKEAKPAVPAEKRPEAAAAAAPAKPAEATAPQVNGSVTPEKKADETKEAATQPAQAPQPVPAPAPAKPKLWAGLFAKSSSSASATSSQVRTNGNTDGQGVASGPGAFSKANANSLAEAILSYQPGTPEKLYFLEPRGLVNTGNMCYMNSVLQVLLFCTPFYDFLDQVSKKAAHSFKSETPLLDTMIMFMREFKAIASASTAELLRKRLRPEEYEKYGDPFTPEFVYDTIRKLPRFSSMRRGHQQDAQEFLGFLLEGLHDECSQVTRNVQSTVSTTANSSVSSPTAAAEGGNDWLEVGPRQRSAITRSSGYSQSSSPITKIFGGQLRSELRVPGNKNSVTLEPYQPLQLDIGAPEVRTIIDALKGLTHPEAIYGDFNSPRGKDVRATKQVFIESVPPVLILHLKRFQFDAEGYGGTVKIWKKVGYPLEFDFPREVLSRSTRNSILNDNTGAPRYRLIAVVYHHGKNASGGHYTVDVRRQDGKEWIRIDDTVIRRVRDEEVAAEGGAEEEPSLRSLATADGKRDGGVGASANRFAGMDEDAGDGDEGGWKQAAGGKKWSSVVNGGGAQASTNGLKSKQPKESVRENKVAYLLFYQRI

No constants are given. Whether binding was seen depends on the method and setting. Binding seen in cells or lysates may run through a third protein. Here binding means that the protein was enriched with, or labelled near, the bait; the list need not be complete.

As for “CtHypK (endogenous) (from UniProt G0SCY6)”, the binding result is reported as “binds”.

Turning to “ubiquitin carboxyl-terminal hydrolase-like protein (from UniProt G0SEF8)”, the binding result is “binds”.

The record behind these values is article PMC9500918, “Extended N-Terminal Acetyltransferase Naa50 in Filamentous Fungi Adds to Naa50 Diversity” (International Journal of Molecular Sciences, 2022).
